US5843669

Chains of the proteins cited; added tags and fusions are not shown. Chains listed by the source or under a name are the forms on record and can include a tag or linker.
UniProt P19821, whole entry: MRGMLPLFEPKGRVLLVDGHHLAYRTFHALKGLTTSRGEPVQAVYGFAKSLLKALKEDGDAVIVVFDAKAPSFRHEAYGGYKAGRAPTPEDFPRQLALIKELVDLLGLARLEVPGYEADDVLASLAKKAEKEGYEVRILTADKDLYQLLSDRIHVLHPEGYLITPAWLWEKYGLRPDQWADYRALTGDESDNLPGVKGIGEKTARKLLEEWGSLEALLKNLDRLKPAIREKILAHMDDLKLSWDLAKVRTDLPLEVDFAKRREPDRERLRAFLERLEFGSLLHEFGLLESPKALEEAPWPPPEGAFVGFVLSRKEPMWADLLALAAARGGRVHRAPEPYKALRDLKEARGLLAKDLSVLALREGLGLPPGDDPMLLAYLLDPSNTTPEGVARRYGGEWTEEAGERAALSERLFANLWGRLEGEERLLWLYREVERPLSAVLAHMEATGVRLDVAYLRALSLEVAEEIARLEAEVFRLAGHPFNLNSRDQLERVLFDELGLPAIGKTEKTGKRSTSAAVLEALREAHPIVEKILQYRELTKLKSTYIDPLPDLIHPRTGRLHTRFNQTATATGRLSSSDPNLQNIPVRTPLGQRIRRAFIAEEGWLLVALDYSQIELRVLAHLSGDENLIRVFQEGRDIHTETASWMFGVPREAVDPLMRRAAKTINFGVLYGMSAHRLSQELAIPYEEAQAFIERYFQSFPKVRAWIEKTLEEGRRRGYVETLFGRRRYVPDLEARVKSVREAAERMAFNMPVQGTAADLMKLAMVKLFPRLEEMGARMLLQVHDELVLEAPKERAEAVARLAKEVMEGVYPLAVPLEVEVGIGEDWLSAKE
UniProt P30313, whole entry: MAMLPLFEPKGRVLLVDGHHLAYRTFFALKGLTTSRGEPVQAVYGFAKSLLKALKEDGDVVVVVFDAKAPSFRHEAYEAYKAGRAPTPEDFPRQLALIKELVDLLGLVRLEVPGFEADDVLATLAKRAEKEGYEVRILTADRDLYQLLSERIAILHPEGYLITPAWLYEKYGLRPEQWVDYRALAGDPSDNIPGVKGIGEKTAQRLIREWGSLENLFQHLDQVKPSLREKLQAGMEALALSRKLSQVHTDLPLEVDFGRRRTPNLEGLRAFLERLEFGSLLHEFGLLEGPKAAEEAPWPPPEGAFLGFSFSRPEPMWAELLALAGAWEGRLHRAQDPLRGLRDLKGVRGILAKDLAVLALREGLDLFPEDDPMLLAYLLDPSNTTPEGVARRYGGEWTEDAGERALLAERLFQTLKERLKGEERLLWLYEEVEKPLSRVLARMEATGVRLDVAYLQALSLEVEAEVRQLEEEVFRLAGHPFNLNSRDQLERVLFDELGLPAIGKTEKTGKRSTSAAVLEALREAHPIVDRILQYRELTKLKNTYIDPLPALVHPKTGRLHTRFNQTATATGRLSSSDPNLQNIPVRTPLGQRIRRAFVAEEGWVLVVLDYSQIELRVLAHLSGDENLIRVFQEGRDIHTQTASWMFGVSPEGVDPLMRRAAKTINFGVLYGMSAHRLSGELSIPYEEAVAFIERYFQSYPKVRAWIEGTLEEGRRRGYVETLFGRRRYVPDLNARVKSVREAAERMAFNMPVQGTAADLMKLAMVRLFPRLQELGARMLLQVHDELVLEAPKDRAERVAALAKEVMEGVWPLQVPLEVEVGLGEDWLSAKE
UniProt P52028, whole entry: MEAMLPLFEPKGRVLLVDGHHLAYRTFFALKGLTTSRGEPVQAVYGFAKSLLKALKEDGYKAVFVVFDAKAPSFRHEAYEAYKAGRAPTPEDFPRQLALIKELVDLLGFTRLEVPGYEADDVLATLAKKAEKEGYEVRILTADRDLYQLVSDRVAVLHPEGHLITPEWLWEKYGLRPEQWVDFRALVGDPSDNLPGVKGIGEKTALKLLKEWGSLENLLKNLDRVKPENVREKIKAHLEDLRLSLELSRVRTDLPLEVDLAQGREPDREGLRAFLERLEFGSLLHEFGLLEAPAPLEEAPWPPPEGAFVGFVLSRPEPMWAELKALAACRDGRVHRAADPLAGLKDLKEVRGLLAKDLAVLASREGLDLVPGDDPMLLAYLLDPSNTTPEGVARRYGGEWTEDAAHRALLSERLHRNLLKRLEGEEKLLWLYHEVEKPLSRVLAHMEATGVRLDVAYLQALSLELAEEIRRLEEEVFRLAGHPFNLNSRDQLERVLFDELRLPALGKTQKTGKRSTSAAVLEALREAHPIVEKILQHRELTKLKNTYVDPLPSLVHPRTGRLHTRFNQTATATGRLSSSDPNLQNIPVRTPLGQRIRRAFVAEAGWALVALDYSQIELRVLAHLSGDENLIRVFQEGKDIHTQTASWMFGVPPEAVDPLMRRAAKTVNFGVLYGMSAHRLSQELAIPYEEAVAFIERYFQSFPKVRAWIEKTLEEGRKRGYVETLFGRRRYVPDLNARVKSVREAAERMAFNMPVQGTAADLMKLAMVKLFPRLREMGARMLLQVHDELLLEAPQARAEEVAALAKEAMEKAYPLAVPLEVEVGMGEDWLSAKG
Rad1/Rad10 endonuclease complex (Saccharomyces cerevisiae), one chain, as listed by the source, chain 2 of 2: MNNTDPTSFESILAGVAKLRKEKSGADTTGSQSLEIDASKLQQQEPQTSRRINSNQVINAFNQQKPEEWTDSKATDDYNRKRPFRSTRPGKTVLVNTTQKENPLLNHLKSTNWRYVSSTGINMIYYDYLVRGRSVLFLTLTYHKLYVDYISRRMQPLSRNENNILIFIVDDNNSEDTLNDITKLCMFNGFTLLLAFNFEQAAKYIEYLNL
Rad1/Rad10 endonuclease complex (Saccharomyces cerevisiae), one chain, as listed by the source, chain 1 of 2: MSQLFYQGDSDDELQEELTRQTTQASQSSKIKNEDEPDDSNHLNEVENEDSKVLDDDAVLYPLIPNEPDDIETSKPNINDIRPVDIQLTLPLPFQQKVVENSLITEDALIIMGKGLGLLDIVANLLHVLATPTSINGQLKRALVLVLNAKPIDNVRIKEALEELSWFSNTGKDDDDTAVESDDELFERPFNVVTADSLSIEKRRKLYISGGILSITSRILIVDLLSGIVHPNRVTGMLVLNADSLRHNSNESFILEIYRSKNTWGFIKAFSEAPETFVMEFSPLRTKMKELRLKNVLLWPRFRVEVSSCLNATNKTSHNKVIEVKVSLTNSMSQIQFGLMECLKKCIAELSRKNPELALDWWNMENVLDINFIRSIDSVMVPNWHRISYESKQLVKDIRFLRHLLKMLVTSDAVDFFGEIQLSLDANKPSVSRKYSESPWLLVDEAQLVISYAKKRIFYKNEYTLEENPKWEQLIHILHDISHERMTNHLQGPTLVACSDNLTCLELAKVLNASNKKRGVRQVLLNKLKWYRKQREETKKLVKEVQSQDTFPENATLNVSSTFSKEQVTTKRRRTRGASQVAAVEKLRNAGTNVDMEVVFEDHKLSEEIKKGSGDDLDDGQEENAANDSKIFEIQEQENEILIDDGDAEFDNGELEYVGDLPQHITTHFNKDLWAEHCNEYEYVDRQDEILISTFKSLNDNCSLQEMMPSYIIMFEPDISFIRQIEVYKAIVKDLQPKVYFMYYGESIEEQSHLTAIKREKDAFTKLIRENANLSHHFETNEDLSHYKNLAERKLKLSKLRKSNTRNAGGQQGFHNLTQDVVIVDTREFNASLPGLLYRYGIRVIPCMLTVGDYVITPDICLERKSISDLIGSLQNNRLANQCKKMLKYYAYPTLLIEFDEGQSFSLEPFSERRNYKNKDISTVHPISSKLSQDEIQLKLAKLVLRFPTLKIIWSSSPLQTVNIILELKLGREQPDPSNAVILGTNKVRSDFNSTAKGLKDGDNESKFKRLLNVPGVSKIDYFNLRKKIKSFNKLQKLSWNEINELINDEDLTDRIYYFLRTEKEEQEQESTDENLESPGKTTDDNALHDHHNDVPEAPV

Legend:
Test in all cases: enzyme reaction in vitro
[1] = system: Rad1/Rad10 endonuclease complex (Saccharomyces cerevisiae); conditions: 37 C, purified recombinant protein, label: 5' biotin, single-stranded DNA
[2] = molecular target: T1, Exonuclease III (Escherichia coli) (UniProt P09030); conditions: 0 or 50 mM KCl, purified recombinant protein, label: 5' biotin, single-stranded DNA
T1 sequence (looked up, limits assumed): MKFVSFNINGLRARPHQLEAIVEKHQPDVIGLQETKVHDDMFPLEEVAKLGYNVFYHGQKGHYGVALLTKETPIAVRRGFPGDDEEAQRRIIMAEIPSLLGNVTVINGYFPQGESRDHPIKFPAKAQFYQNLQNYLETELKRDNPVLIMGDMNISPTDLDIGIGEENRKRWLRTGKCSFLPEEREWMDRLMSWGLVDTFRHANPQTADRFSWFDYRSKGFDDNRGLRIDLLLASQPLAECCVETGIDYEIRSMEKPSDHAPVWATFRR

[3] = molecular target: Taq DNA polymerase (DNAPTaq) (Thermus aquaticus) (UniProt P19821); conditions: multiple products with dNTPs due to synthesis; purified native protein; label: 5' 32P; folded or branched DNA
[4] = molecular target: Tfl DNA polymerase (Thermus flavus) (UniProt P30313); conditions: less efficient than Tth; purified native protein; label: 5' biotin; single-stranded DNA
[5] = molecular target: Tth DNA polymerase (Thermus thermophilus) (UniProt P52028); conditions: same structures recognised as Cleavase BN; purified native protein; label: 5' biotin; single-stranded DNA
[6] = variant of tyrosinase exon 4 wild-type sense 157 nt

Sequence: CACCGTCCTCTTCAAGAAGTTTATCCAGAAGCCAATGCACCCATTAGACATAACCGGGAATCCTACATGGTTCCTTTTATACCACTGTACAGAAATGGTGATTTCTTTATTTCATCCAAAGATCTGGGCTATGACTATAGCTATCTACAAGATTCAG [tyrosinase 419 mutant sense 157 nt]
- activity on this sequence ([1]; one band absent compared with wild type, variant of tyrosinase exon 4 wild-type sense 157 nt): active
- activity on this sequence [2, 6]: active

Sequence: TAATACGACTCACTATAGGGAGACCGGAATTCGAGCTCGCCCGGGCGAGCTCGAATTCCGTGTATTCTATAGTGTCACCTAAATCGAATTC / GATTTAGGTGACACTATAG [hairpin test molecule with primer annealed to 3' arm]
- activity on this sequence [3]: active

Sequence: CACCGTCCTCTTCAAGAAGTTTATCCAGAAGCCAATGCACCCATTGGACATAACCGGGAATCCTACATGGTTCCTTTTATACCACTGTACAGAAATGGTGATTTCTTTATTTCATCCAAAGATCTGGGCTATGACTATAGCTATCTACAAGATTCAG [tyrosinase exon 4 wild-type sense 157 nt]
- activity on this sequence [4]: active
- activity on this sequence ([1]; cleaves 3' arm): active
- activity on this sequence [2]: active
- activity on this sequence [5]: active

Sequence: CACCGTCCTCTTCAAGAAGTTTATCCAGAAGCCAATGCACCCATTGGACATAACCAGGAATCCTACATGGTTCCTTTTATACCACTGTACAGAAATGGTGATTTCTTTATTTCATCCAAAGATCTGGGCTATGACTATAGCTATCTACAAGATTCAG [tyrosinase 422 mutant sense 157 nt]
- activity on this sequence ([1]; new bands at 42-80 nt, variant of tyrosinase exon 4 wild-type sense 157 nt): active
- activity on this sequence [2, 6]: active

For part of these data: Protein sequences can lack the tags named with them.
